Reference: patent US8623387B2, “External preparation composition comprising fatty acid-based ionic liquid as active ingredient” (Medrx Co., Ltd., priority 2007, dated 2014)

Assay: IR absorption spectrum, confirmation of salt formation (carboxylic acid vs carboxyl ion absorption)
Set-up: key to Salt formation by IR absorption, equimolar reaction with Octanoic acid: CO2H→CO2^− represents that the IR absorption of the carboxylic acid disappeared and carboxylic acid ion absorption was formed.; CO2H + CO2^− represents that absorptions of carboxylic acid and carboxylic acid ions coexist. In this case, the form of an equilibrium mixture in view of IR spectrum is represented

CC(O)CNCC(C)O (centres unmarked) [Diisopropanolamine]
Salt formation by IR absorption, equimolar reaction with Capric acid (equimolar amine + capric acid, 'Same as the left' = same result as the octanoic acid column): Same as
Salt formation by IR absorption, equimolar reaction with Isostearic acid (equimolar amine + isostearic acid, 'Same as the left' = same result as the octanoic acid column): Same as the
Salt formation by IR absorption, equimolar reaction with Lauric acid (equimolar amine + lauric acid, 'Same as the left' = same result as the octanoic acid column): Same as
Salt formation by IR absorption, equimolar reaction with Octanoic acid (equimolar amine + octanoic acid, 80° C., Nujol, NaCl plates, #1 Salt formation, #2 Equilibrium mixture): CO2H→CO2^− #1
position of IR absorption, Characteristic absorption of —COOH of isostearic acid (isostearic acid before salt formation, Nujol, rock salt plates): 1710 cm⁻¹
